In publication doi:10.1101/2023.06.21.545689:
Results are given in words; binding and its absence hold for the method and conditions named. Some entries that bind do so weakly or less than the wild type.

T1: BLADE-ON-PETIOLE2 (BOP2) (Arabidopsis thaliana) (UniProt Q9ZVC2)
T1 sequence: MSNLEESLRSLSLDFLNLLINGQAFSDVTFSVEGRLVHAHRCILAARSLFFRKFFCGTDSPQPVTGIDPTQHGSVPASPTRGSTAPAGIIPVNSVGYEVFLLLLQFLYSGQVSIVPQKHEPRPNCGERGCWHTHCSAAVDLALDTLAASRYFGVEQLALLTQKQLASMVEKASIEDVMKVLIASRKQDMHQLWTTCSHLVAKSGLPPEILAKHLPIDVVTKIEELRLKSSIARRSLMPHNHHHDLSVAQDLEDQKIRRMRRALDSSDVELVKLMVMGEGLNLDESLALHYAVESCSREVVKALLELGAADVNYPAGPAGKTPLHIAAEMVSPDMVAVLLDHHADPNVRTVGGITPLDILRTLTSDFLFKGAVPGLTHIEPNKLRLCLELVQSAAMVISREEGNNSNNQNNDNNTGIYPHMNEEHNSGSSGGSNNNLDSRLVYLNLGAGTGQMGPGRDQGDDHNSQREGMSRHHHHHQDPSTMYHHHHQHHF

T2: BLADE-ON-PETIOLE1 (BOP1) (Arabidopsis thaliana) (UniProt Q9M1I7)
T2 sequence: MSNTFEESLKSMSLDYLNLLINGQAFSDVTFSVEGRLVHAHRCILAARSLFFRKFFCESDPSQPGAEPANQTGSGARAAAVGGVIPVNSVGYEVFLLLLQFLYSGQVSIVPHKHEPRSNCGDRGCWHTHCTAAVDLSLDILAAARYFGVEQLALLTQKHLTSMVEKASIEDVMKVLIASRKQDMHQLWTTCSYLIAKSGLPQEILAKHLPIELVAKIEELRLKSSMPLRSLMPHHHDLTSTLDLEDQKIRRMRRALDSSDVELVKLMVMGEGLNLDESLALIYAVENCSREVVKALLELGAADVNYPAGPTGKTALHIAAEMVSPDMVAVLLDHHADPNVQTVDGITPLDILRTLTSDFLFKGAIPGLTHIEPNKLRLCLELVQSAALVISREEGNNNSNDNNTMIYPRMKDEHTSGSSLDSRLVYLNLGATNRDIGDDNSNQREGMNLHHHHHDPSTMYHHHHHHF

B1: LIGHT-… SHORT HYPOCOTYLS 1 (LSH1) (protein, UniProt Q6NNI3 1-190)
chain: MDLISHQPNKNPNSSTQLTPPSSSRYENQKRRDWNTFCQYLRNHRPPLSLPSCSGAHVLEFLRYLDQFGKTKVHHQNCAFFGLPNPPAPCPCPLRQAWGSLDALIGRLRAAYEENGGPPEANPFGSRAVRLFLREVRDFQAKARGVSYEKKRKRVNRQKPQTQPPLQLQQQQQQPQQGQSMMANYSGATV
B2: LIGHT-… SHORT HYPOCOTYLS 3 (LSH3) (protein, UniProt O82268 1-219)
chain: MDMIPQLMEGSSAYGGVTNLNIISNNSSSVTGATGGEATQPLSSSSSPSANSSRYENQKRRDWNTFGQYLRNHRPPLSLSRCSGAHVLEFLRYLDQFGKTKVHTNICHFYGHPNPPAPCPCPLRQAWGSLDALIGRLRAAFEENGGKPETNPFGARAVRLYLREVRDMQSKARGVSYEKKKRKRPLPSSSTSSSSAVASHQQFQMLPGTSSTTQLKFEK
B3: LIGHT-… SHORT HYPOCOTYLS 4 (LSH4) (protein, UniProt Q9LW68 1-195)
chain: MDHIIGFMGTTNMSHNTNLMIAAAATTTTTSSSSSSSSGGSGTNQLSRYENQKRRDWNTFGQYLRNHRPPLSLSRCSGAHVLEFLRYLDQFGKTKVHTHLCPFFGHPNPPAPCACPLRQAWGSLDALIGRLRAAFEENGGSPETNPFGARAVRLYLREVRDSQAKARGISYEKKKRKRPPPPLPPAQPAISSSPN

These binders were tested against T1, BLADE-ON-PETIOLE2 (BOP2) (Arabidopsis thaliana) (assay: two-hybrid).
In the case of B1, the binding is reported as “binds”.
B2 was tested, and the binding was “binds”.
In the case of B3, the binding is reported as “binds”.

The binders below were run against T2, BLADE-ON-PETIOLE1 (BOP1) (Arabidopsis thaliana) (assay: two-hybrid).
In the case of B1, the binding is reported as “binds”.
With B2 the binding was “binds”.
With B3 the binding was “binds”.
